# Data: the supplement of paper PMC8728848
# The other results are listed elsewhere or left out.
# B1: R2-fiber (Pseudomonas aeruginosa), Q9S576 (protein)
# chain: HHHHHHKVAKDLVVSLAYQVRTEDGVLVDESPVSAPLDYLHGHGSLISGLETALEGHEVGDKFDVAVGANDAYGQYDENLVQRVPKDVFMGVDELQVGMRFLAETDQGPVPVEITAVEDDHVVVDGNHMLAGQNLKFNVEVVAIREATEEELAHGHVHGAHDHHHDHDHDGCCGGHGHDHGHEHGGEGCCGGKGNGGCGCHENLYFQGVTAGMALAATDIPGLDASKLVSGVLAEQRLPVFARGLATAVSNSSDPNTATVPLMLTNHANGPVAGRYFYIQSMFYPDQNGNASQIATSYNATSEMYVRVSYAANPSIREWLPWQRCDIGGSFTKEADGELPGGVNLDSMVTSGWWSQSFTAQAASGANYPIVRAGLLHVYAASSNFIYQTYQAYDGESFYFRCRHSNTWFPWRRMWHGGDFNPSDYLLKSGFYWNALPGKPATFPPSAHNHDVGQLTSGILPLARGGVGSNTAAGARSTIGAGVPATASLGASGWWRDNDTGLIRQWGQVTCPADADASITFPIPFPTLCLGGYANQTSAFHPGTDASTGFRGATTTTAVIRNGYFAQAVLSWEAFGR
# Columns and labels:
# Assay in all cases: glycan array binding signal (z-score within array); higher = stronger binding
# Details in all cases: glycan notation: IUPAC condensed, linker removed
# [1] = biological target: Neu5Ac(a2-3)Gal(b1-3)GlcNAc(b1-6)GalNAc
# In short: (§1)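 Glycan array binding is given as a within-array Z-score, which can be read as non-binding when negative. The arrays, 3228 of them, came from the Consortium for Functional Glycomics database and were retained only where the protein sequence was available. Z-scores were averaged across arrays of the same protein sequence at different concentrations or buffers and across linkers.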
# [2] = biological target: Neu5Ac(a2-3)Gal(b1-3)GlcNAc6S
# In short: as §1
# [3] = biological target: Neu5Ac(a2-3)Gal(b1-3)[Fuc(a1-4)]GlcNAc
# In short: as §1
# [4] = biological target: Neu5Ac(a2-3)Gal(b1-3)[Fuc(a1-4)]GlcNAc(b1-3)Gal(b1-3)[Fuc(a1-4)]GlcNAc
# In short: as §1
# [5] = biological target: Neu5Ac(a2-3)Gal(b1-3)[Fuc(a1-4)]GlcNAc(b1-3)Gal(b1-4)[Fuc(a1-3)]GlcNAc
# In short: as §1
# [6] = biological target: Neu5Ac(a2-3)Gal(b1-3)[GlcNAc(b1-6)]GalNAc
# In short: as §1
# [7] = biological target: Neu5Ac(a2-3)Gal(b1-3)[Neu5Ac(a2-6)]GalNAc
# In short: as §1
# [8] = biological target: Neu5Ac(a2-3)Gal(b1-3)[Neu5Ac(a2-6)]GlcNAc(b1-3)[Fuc(a1-3)[Gal(b1-4)]GlcNAc(b1-6)]Gal(b1-4)Glc
# In short: as §1
# [9] = biological target: Neu5Ac(a2-3)Gal(b1-3)]Neu5Ac(a2-3)Gal(b1-4)]GlcNAc
# In short: as §1
# [10] = biological target: Neu5Ac(a2-3)Gal(b1-4)Glc
# In short: as §1
# [11] = biological target: Neu5Ac(a2-3)Gal(b1-4)GlcNAc
# In short: as §1
# [12] = biological target: Neu5Ac(a2-3)Gal(b1-4)GlcNAc(b1-2)Man
# In short: as §1
# [13] = biological target: Neu5Ac(a2-3)Gal(b1-4)GlcNAc(b1-2)Man(a1-3)[GlcNAc(b1-4)][Neu5Ac(a2-3)Gal(b1-4)GlcNAc(b1-2)Man(a1-6)]Man(b1-4)GlcNAc(b1-4)GlcNAc
# In short: as §1
# [14] = biological target: Neu5Ac(a2-3)Gal(b1-4)GlcNAc(b1-2)Man(a1-3)[Neu5Ac(a2-3)Gal(b1-4)GlcNAc(b1-2)Man(a1-6)]Man(b1-4)GlcNAc(b1-4)GlcNAc
# In short: as §1
# [15] = biological target: Neu5Ac(a2-3)Gal(b1-4)GlcNAc(b1-2)Man(a1-3)[Neu5Ac(a2-3)Gal(b1-4)GlcNAc(b1-2)Man(a1-6)]Man(b1-4)GlcNAc(b1-4)[Fuc(a1-6)]GlcNAc
# In short: as §1
# [16] = biological target: Neu5Ac(a2-3)Gal(b1-4)GlcNAc(b1-2)Man(a1-3)[Neu5Ac(a2-6)Gal(b1-4)GlcNAc(b1-2)Man(a1-6)]Man(b1-4)GlcNAc(b1-4)GlcNAc
# In short: as §1
# [17] = biological target: Neu5Ac(a2-3)Gal(b1-4)GlcNAc(b1-2)[Neu5Ac(a2-3)Gal(b1-4)GlcNAc(b1-4)]Man(a1-3)[GlcNAc(b1-4)][Neu5Ac(a2-3)Gal(b1-4)GlcNAc(b1-2)[Neu5Ac(a2-3)Gal(b1-4)GlcNAc(b1-6)]Man(a1-6)]Man(b1-4)GlcNAc(b1-4)GlcNAc
# In short: as §1
# [18] = biological target: Neu5Ac(a2-3)Gal(b1-4)GlcNAc(b1-2)[Neu5Ac(a2-3)Gal(b1-4)GlcNAc(b1-4)]Man(a1-3)[GlcNAc(b1-4)][Neu5Ac(a2-3)Gal(b1-4)GlcNAc(b1-4)Man(a1-6)]Man(b1-4)GlcNAc(b1-4)GlcNAc
# In short: as §1
# [19] = biological target: Neu5Ac(a2-3)Gal(b1-4)GlcNAc(b1-2)[Neu5Ac(a2-3)Gal(b1-4)GlcNAc(b1-6)]Man(a1-6)[Neu5Ac(a2-3)Gal(b1-4)GlcNAc(b1-2)Man(a1-3)][GlcNAc(b1-4)]Man(b1-4)GlcNAc(b1-4)GlcNAc
# In short: as §1
# [20] = biological target: Neu5Ac(a2-3)Gal(b1-4)GlcNAc(b1-3)Gal
# In short: as §1
# [21] = biological target: Neu5Ac(a2-3)Gal(b1-4)GlcNAc(b1-3)Gal(b1-3)GlcNAc
# In short: as §1
# [22] = biological target: Neu5Ac(a2-3)Gal(b1-4)GlcNAc(b1-3)Gal(b1-4)GlcNAc
# In short: as §1
# [23] = biological target: Neu5Ac(a2-3)Gal(b1-4)GlcNAc(b1-3)Gal(b1-4)GlcNAc(b1-2)Man(a1-3)[Neu5Ac(a2-3)Gal(b1-4)GlcNAc(b1-3)Gal(b1-4)GlcNAc(b1-2)Man(a1-6)]Man(b1-4)GlcNAc(b1-4)GlcNAc
# In short: as §1
# [24] = biological target: Neu5Ac(a2-3)Gal(b1-4)GlcNAc(b1-3)Gal(b1-4)GlcNAc(b1-3)Gal(b1-4)GlcNAc
# In short: as §1
# [25] = biological target: Neu5Ac(a2-3)Gal(b1-4)GlcNAc(b1-3)Gal(b1-4)GlcNAc(b1-3)Gal(b1-4)GlcNAc(b1-2)Man(a1-3)[Neu5Ac(a2-3)Gal(b1-4)GlcNAc(b1-3)Gal(b1-4)GlcNAc(b1-3)Gal(b1-4)GlcNAc(b1-2)Man(a1-6)]GalNAc
# In short: as §1
# [26] = biological target: Neu5Ac(a2-3)Gal(b1-4)GlcNAc(b1-3)Gal(b1-4)GlcNAc(b1-3)GalNAc
# In short: as §1
# [27] = biological target: Neu5Ac(a2-3)Gal(b1-4)GlcNAc(b1-3)Gal(b1-4)GlcNAc(b1-3)[Neu5Ac(a2-3)Gal(b1-4)GlcNAc(b1-3)Gal(b1-4)GlcNAc(b1-6)]GalNAc
# In short: as §1
# [28] = biological target: Neu5Ac(a2-3)Gal(b1-4)GlcNAc(b1-3)Gal(b1-4)GlcNAc(b1-6)[Gal(b1-3)]GalNAc
# In short: as §1
# [29] = biological target: Neu5Ac(a2-3)Gal(b1-4)GlcNAc(b1-3)Gal(b1-4)[Fuc(a1-3)]GlcNAc
# In short: as §1
# [30] = biological target: Neu5Ac(a2-3)Gal(b1-4)GlcNAc(b1-3)GalNAc
# In short: as §1
binder,measurement,setting,value
B1,glycan array binding signal (z-score),[1],-0.599
same,glycan array binding signal (z-score),[2],0.439
same,glycan array binding signal (z-score),[3],0.079
same,glycan array binding signal (z-score),[4],-0.192
same,glycan array binding signal (z-score),[5],-0.701
same,glycan array binding signal (z-score),[6],-0.889
same,glycan array binding signal (z-score),[7],-0.402
same,glycan array binding signal (z-score),[8],0.499
same,glycan array binding signal (z-score),[9],-0.347
same,glycan array binding signal (z-score),[10],-0.261
same,glycan array binding signal (z-score),[11],0.039
same,glycan array binding signal (z-score),[12],-0.09
same,glycan array binding signal (z-score),[13],-0.269
same,glycan array binding signal (z-score),[14],0.569
same,glycan array binding signal (z-score),[15],5.23
same,glycan array binding signal (z-score),[16],-0.424
same,glycan array binding signal (z-score),[17],-0.702
same,glycan array binding signal (z-score),[18],-0.543
same,glycan array binding signal (z-score),[19],-0.558
same,glycan array binding signal (z-score),[20],-0.851
same,glycan array binding signal (z-score),[21],-0.08
same,glycan array binding signal (z-score),[22],-0.303
same,glycan array binding signal (z-score),[23],-0.592
same,glycan array binding signal (z-score),[24],-0.146
same,glycan array binding signal (z-score),[25],0.308
same,glycan array binding signal (z-score),[26],-0.526
same,glycan array binding signal (z-score),[27],-0.406
same,glycan array binding signal (z-score),[28],-0.722
same,glycan array binding signal (z-score),[29],-0.816
same,glycan array binding signal (z-score),[30],-0.287

# An excerpt of these results, with tabs:
binder	measurement	setting	value
B1	glycan array binding signal (z-score)	[13]	-0.269
same	glycan array binding signal (z-score)	[14]	0.569
